Source: US10251944B2, “Cancer vaccines” (Pfizer Inc., priority 2016, dated 2019)
“And” between values parts separate entries of the source, which are not always exact repeats. Equal values may be shown once. The source gives many values for each of these; only a part stands here.

Tested on: TUBO tumor cells
Test: Subcutaneous TUBO tumor growth in BALB-neuT mice
Type: in vivo
Design: key: tumor volume in mm3
Conditions: with control vaccine and isotype control monoclonal antibody, in mm³
Procedure: BALB-neuT mice were implanted on study day 0 with TUBO tumor cells by subcutaneous injection. Mice were dosed with 200 mg/Kg of 3-(5-fluoro-1H-indol-3-yl)pyrrolidine-2,5-dione (IDO1 inhibitor) or vehicle twice daily from study day 7 using oral gavage. Comparator groups were sham dosed with vehicle from study day 7 onwards. Appropriated mice were immunized on study day 10 with 1e10 Viral Particles of an adenovirus vector engineered to express rat HER2 (rHER2) (rHER2 vaccine) or vector lacking the rHER2 transgene (control vaccine), by intramuscular injection. Subsequently, 250 ug of an anti-CTLA4 antibody (murine monoclonal antibody to CTLA-4, clone 9D9) or an IgG2 isotype control monoclonal antibody was injected subcutaneously in close proximity to lymph nodes draining the site of adenovirus vector injection. Every two weeks thereafter, mice were immunized with 100 ug of a DNA plasmid encoding rHER2 (rHER2 vaccine) or a DNA plasmid lacking the rHER2 transgene (control vaccine) by electroporation. Subsequent to the DNA plasmid administration, 250 ug of the anti-CTLA4 antibody was injected subcutaneously in close proximity to lymph nodes draining the site of DNA plasmid injection. To track tumor progression, subcutaneous tumor volumes were measured twice a week throughout the study. Animals with subcutaneous tumor volumes that reached 2000 mm3 or displaying irreversible signs of disease were euthanized.

O=C1CC(c2c[nH]c3ccc(F)cc23)C(=O)N1 (centres unmarked) [001 inhibitor, 3-(5-fluoro-1H-indol-3-yl)pyrrolidine-2,5-dione]
Subcutaneous tumor volumes (Study Day 7, individual animals, listed as IDO1 inhibitor): 27.80 and 21.87 and 32.40 and 18.45 and 21.99 and 36.46 and 21.11 and 15.78 and 34.61 and 12.22 and 14.78 and 20.72 and 28.62
Subcutaneous tumor volumes (Study Day 11, individual animals, listed as IDO1 inhibitor): 50.27 and 28.63 and 52.20 and 24.65 and 50.36 and 46.02 and 29.32 and 42.34 and 66.59 and 21.18 and 19.13 and 51.22 and 33.59
Subcutaneous tumor volumes (Study Day 14, individual animals, listed as IDO1 inhibitor): 66.16 and 35.08 and 54.92 and 44.31 and 85.94 and 39.75 and 31.22 and 43.83 and 99.08 and 27.42 and 36.76 and 53.21 and 62.59
Subcutaneous tumor volumes (Study Day 42, individual animals, listed as IDO1 inhibitor): 340.52 and 268.88 and 441.62 and 676.89
Subcutaneous tumor volumes (Study Day 46, individual animals, listed as IDO1 inhibitor): 660.63 and 604.23 and 818.67 and 719.57 and 909.66 and 696.77 and 782.22 and 933.81 and 997.91 and 431.11 and 345.63 and 682.81 and 1060.91
Subcutaneous tumor volumes (Study Day 49, individual animals, listed as IDO1 inhibitor): 685.30 and 629.55 and 940.30 and 942.51 and 1045.76 and 917.68 and 1138.52 and 1124.52 and 1219.32 and 609.28 and 470.15 and 807.07 and 1164.50
Subcutaneous tumor volumes (Study Day 53, individual animals, listed as IDO1 inhibitor): 864.42 and 792.50 and 1373.25 and 1139.13 and 1614.31 and 1073.56 and 1288.73 and 1449.44 and 1275.84 and 735.98 and 547.89 and 1167.81 and 1618.54
Subcutaneous tumor volumes (Study Day 56, individual animals, listed as IDO1 inhibitor): 943.28 and 1128.21 and 1630.88 and 1431.28 and 1471.68 and 1323.69 and 1631.81 and 1937.45 and 2064.17 and 952.77 and 893.91 and 1714.64 and 1754.98
Subcutaneous tumor volumes (Study Day 60, individual animals, listed as IDO1 inhibitor): 1384.35 and 1450.47 and 1946.29 and 1653.35 and 1673.55 and 1107.86 and 928.10 and 1923.35 and 1918.84
Subcutaneous tumor volumes (Study Day 63, individual animals, listed as IDO1 inhibitor): 1600.66 and 1652.48 and 2089.13 and 1682.01 and 1426.67 and 938.92
Subcutaneous tumor volumes (Study Day 66, individual animals, listed as IDO1 inhibitor): 1776.61 and 1985.40 and 1982.89 and 1416.50 and 1198.20
Subcutaneous tumor volumes (Study Day 70, individual animals, listed as IDO1 inhibitor): 2186.37 and 1974.53 and 1804.46
Subcutaneous tumor volumes (Study Day 74, individual animals): 1816.96
Subcutaneous tumor volumes (Study Day 77, individual animals): 2039.55
